In publication PMC8292509:
These are yes or no findings as the source states them, for the method shown. In cells and extracts the contact can be indirect. Some results given as binding are weak or reduced against the parent protein; the word gives no strength.

Chains of the proteins cited; added tags and fusions are not shown.
UniProt A5A3E0: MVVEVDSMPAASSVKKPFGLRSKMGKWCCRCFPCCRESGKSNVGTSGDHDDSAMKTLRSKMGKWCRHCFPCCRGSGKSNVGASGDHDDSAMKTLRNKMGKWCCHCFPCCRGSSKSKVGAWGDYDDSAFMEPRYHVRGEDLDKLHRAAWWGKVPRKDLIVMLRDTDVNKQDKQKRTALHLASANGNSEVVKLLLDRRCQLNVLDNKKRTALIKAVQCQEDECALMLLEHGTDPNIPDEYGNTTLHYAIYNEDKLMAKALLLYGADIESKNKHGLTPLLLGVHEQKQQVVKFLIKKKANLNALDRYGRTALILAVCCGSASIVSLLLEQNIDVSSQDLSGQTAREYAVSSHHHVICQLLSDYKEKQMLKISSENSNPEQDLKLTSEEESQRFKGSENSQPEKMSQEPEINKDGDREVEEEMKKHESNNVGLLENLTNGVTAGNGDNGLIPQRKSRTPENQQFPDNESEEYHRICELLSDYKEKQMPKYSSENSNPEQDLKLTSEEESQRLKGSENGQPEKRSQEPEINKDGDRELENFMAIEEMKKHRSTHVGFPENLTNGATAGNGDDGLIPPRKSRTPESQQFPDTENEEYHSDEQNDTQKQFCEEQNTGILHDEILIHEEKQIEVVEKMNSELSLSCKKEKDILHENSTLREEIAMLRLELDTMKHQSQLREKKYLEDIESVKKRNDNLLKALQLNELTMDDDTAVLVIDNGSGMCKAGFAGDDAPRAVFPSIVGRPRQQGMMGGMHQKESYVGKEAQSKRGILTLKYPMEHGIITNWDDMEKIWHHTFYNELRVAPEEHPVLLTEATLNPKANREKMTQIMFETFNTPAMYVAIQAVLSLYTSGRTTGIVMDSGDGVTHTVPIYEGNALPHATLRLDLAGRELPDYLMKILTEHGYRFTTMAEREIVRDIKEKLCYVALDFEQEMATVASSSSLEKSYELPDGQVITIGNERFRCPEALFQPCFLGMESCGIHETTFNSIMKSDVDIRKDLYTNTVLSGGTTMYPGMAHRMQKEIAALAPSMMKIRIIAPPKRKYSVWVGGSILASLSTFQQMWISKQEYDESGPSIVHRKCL
UniProt P50990: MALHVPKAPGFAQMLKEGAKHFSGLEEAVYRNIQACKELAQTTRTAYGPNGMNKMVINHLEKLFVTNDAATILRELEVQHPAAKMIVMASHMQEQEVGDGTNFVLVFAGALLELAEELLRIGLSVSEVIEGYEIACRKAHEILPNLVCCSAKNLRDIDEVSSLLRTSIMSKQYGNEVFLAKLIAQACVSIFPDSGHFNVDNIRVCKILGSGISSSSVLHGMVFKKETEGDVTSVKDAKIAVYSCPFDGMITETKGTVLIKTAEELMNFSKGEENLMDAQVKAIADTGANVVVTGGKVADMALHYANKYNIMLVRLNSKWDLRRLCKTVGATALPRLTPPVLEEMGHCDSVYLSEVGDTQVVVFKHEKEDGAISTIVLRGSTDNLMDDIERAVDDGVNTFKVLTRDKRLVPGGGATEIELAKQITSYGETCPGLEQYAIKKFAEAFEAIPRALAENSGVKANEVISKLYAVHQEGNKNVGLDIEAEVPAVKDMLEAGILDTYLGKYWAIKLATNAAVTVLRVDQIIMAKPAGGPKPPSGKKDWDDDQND

Biological target: POTE ankyrin domain family member F (POTEF) tagged with DDDDK, drug-inducible in HGrC1 cells (human) (UniProt A5A3E0)
Experiment: co-IP; lysate of CuO-POTEF-Flag HGrC1 cells cultured 2 days with cumate; IP with the DDDDK-tagged Protein Magnetic Purification Kit (anti-DDDDK); western blot with anti-TCP-1α and anti-TCP-1θ

## TCP-1θ, a subunit of chaperonin containing TCP-1 complex (CCT) (from UniProt P50990 1-548)
  binding: binds
